Some of these results come from one statement about several compounds together. At least one structure is not confirmed: it was looked up by name or label, or the drawing left a doubt.
Test system: CD45.1 Lin^− donor cells
Test: M-HSCT: donor CD45.1 chimerism after mobilization of CD45.2 recipients
Assay type: in vivo, C57BL/6J CD45.2 mice
Details: PB follow-up
Source text: To test if these levels of mobilization, and the subsequent BM niche availability, were sufficient to allow engraftment of donor cells, 2×10^6 CD45.1 lineage negative (Lin^−) cells, purified from the BM, were transplanted into CD45.2 congenic recipients after the last injection of AMD3100 or AMD3100/BIO5192 (FIG. 1A, C; FIG. 6D).
Donor mice between 6 and 10 weeks of age were euthanized by CO2, and BM cells were retrieved from femurs, tibias, and humeri. HSPCs were purified by Lin− selection using the mouse Lineage Cell Depletion Kit (Miltenyi Biotec) according to the manufacturer's instructions. Cells were then cultured (for 2 hours or overnight) in serum-free StemSpan medium (StemCell Technologies) containing penicillin, streptomycin, glutamine, and a combination of mouse cytokines (20 ng/ml IL-3, 100 ng/ml SCF, 100 ng/ml Flt-3L, 50 ng/ml TPO all from PeproTech), at a concentration of 2-5×10^6 cells.ml^−1. Purified Lin^− cells were transplanted at a total dose of 2×10^6 cells/mouse into 8 to 12-week-old mobilized mice, three hours after the last injection of AMD3100 and/or Bio5192. Serial collections of blood from the retro-orbital vein were performed to monitor the hematological parameters and donor cell engraftment. At the end of the experiment, BM, thymus and spleen, and lymph nodes were harvested and analyzed.

Compound: Cc1ccccc1NC(=O)Nc1ccc(CC(=O)N(C)[C@@H](CC(C)C)C(=O)NCC[C@H](NC(=O)[C@@H]2CCCN2S(=O)(=O)c2cc(Cl)cc(Cl)c2)C(=O)O)cc1 [BIO5192]
- time for which chimerism was stable: up to 24 weeks
